# Experimental data published in PubChem BioAssay AID540276 (National Center for Advancing Translational Sciences (NCATS), 2011).
# About 5,400 (1.8%) of roughly 300,000 compounds were called active. Inconclusive results, whose numbers are uncertain, are shown with a selection of clear calls. Calls come from the whole dose curve; tested in HEK293 cells. Potencies beside an inconclusive call are fits to weak or partial responses and may not hold up.
# Test: qHTS for inhibitors of binding or entry into cells for Marburg Virus
# Settings: Marburg virus pseudotyped entry inhibition, cell reporter; activity change, negative = inhibition: at 37.8 µM (top of the series) unless noted
# % is set by controls: 0 for no effect and ±100 for the full control effect; potency is the fitted concentration of half-maximal effect.
SMILES,Potency,"activity change, negative = inhibition"
O=C(Nc1ccncc1)c1cccc(S(=O)(=O)N2CCc3ccccc32)c1,"inconclusive: 3.55 µM [inhibitor, partial curve, poor fit]",
c1ccc(-c2cc(NCCN3CCCCC3)c3ccccc3n2)cc1,active: 2.82 µM,
COC(=O)C12CC3(CCC4C5C(C(OCc6ccccc6)C41)C52)OCCO3 (stereo not given),"inconclusive: 1.19 µM [inhibitor, single point]",
O=C(Nc1ccc(N2CCN(Cc3ccccc3)CC2)cc1)c1ccco1,,inactive: -23.5%
O=C(C1CCCCC1)N1C[C@@H](n2cc(C3CC3)nn2)[C@@H](O)C[C@@H]1c1ccccc1,"inconclusive: 0.0995 µM [activator, full curve, poor fit]",
COc1cc(C(=O)Nc2ccc(S(=O)(=O)Nc3onc(C)c3C)cc2)cc(OC)c1OC,"inconclusive: 2.82 µM [activator, single point]",
CC(=O)Cn1ncc(N(C)Cc2ccccc2)c(Cl)c1=O,"inconclusive: 12.6 µM [activator, partial curve]",
COc1ccc(N2CCc3c(C)nc4c(OC)cc(OC)cc4c32)c(OC)c1,active: 11.6 µM,
Cc1ccccc1NC(=O)CSc1nc(N)c2c3c(sc2n1)CSC(C)(C)C3,,inactive: -43.3%
Cc1nnc(N2CCN(c3ccccc3F)CC2)c2c1nnn2Cc1ccccc1,,inactive: 5.19% [at 46.1 µM]
CC(CCc1ccccc1)NS(=O)(=O)c1ccccc1F (stereo not given),"inconclusive: 35.5 µM [inhibitor, single point]",
N#C/C(=C\c1ccc(F)c(Cl)c1)S(=O)(=O)c1ccccn1,"inconclusive: 3.16 µM [activator, single point]",
O=C(Cn1cnc2cc([N+](=O)[O-])ccc2c1=O)N1CCN(S(=O)(=O)c2ccccc2)CC1,"inconclusive: 10 µM [inhibitor, partial curve, poor fit]",
CN1C(=O)C(=Cc2cc([N+](=O)[O-])ccc2N2CCCCC2)C(=O)N(C)C1=O,"inconclusive: 7.08 µM [activator, partial curve]",
O=C(CCc1ccccn1)N1CCCC(N2CCN(c3cccc(C(F)(F)F)c3)CC2)C1 (stereo not given),,inactive: 3.36% [at 46.1 µM]
COc1ccc(OC)c(CCNC(=O)CCc2cn(C)c3ccccc23)c1,,inactive: -14.8% [at 46.1 µM]
COc1ccc(C2(CNC(=O)c3cc(OC)c(OC)c(OC)c3)CCCC2)cc1OC,,inactive: -0.427% [at 46.1 µM]
c1ccc2c3c([nH]c2c1)C(C1CCCCC1)N(Cc1ncc[nH]1)CC3 (stereo not given),,inactive: -21% [at 46.1 µM]
CN(C)CC1CCCCC1OC(=O)/C=C/c1ccc(Cl)cc1Cl (stereo not given),"inconclusive: 15.8 µM [inhibitor, single point]",
C[C@@H]1CC[C@H]2C(=O)N(Cc3cccc([N+](=O)[O-])c3)C[C@@H](O)CN2[C@@H]1c1cccc(Br)c1,"inconclusive: 0.0119 µM [inhibitor, full curve, poor fit]",

# For convenience, two of the compounds above:
SMILES,Potency,"activity change, negative = inhibition"
N#C/C(=C\c1ccc(F)c(Cl)c1)S(=O)(=O)c1ccccn1,"inconclusive: 3.16 µM [activator, single point]",
O=C(Cn1cnc2cc([N+](=O)[O-])ccc2c1=O)N1CCN(S(=O)(=O)c2ccccc2)CC1,"inconclusive: 10 µM [inhibitor, partial curve, poor fit]",
